Laboratory results reported in PMC7819943, “Rice protein-binding microarrays: a tool to detect cis-acting elements near promoter regions in rice”.
Some of the results follow.

Protein sequences, listed by entry. Tags and fused reporters are not part of them.
UniProt Q0JBA9, entry or part of it: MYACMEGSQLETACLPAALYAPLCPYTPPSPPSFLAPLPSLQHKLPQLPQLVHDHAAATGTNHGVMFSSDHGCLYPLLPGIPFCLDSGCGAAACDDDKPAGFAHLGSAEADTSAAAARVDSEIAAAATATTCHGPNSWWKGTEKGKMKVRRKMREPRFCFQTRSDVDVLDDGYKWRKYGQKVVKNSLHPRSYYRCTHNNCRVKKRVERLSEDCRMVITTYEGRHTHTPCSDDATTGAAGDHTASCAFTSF

Biological target: OsWRKY34 (Oryza sativa, UniProt Q0JBA9 1-250)
Test: protein-binding microarray (RPBM); PBS, 2% BSA, 51.3 ng/ul salmon testes DNA, 50 uM zinc acetate, 200 nM TF, 25 C, 1 h; high values mean tight binding
Conditions: protein: recombinant; tags: N-terminal polyhistidine and DsRed monomer fusion (pET32a); label: CyDye5-dUTP incorporated in the synthesized complementary strand; 3' TTTTT single-stranded linker to array surface; dsDNA, one strand shown
Method in brief: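 Ni–NTA purification followed expression in E. coli BL21-CodonPlus of transcription factors fused N-terminally to a polyhistidine tag and DsRed. At 200 nM in PBS with 2% BSA, salmon testes DNA and 50 µM zinc acetate, the protein was incubated for 1 h at 25 °C with a custom Agilent array that had been primer-extended with Cy5-dUTP and blocked with 2% BSA. After washing, the array was read on an Axon 4000B scanner. The binding signal is per-feature fluorescence intensity in arbitrary units.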

Sequence | binding signal
GAAAGCATCCCCAGCCGTTCATCGCCCATCCGAGGTAGAACGGAGTCACCTAGTGCAG | 9070 fluorescence intensity (a.u.)
TTCCAAAGCATGCACTTTTCATCATTATCCCATCTCATAACGGAGTCACCTAGTGCAG | 9480 fluorescence intensity (a.u.)
CAATTTGGAGCCCTTTTTTTATTGCATGCAACTCTGCAGTCGGAGTCACCTAGTGCAG | 8360 fluorescence intensity (a.u.)
TACCTCCGCGCGCGCCTTGTGTTCGACCCACGTCAACCCACGGAGTCACCTAGTGCAG | 10300 fluorescence intensity (a.u.)
GTCCAAAGTGCGAATCGCTCTTTATTTTTCTACCGTCACCCGGAGTCACCTAGTGCAG | 8430 fluorescence intensity (a.u.)
TCAGTTCTGTTGGTCTTCTTTTTCTCTCCGGTGGGGATAGCGGAGTCACCTAGTGCAG | 8280 fluorescence intensity (a.u.)
ATCCTCTCCCGCACCAGCTATAAACCGCCACACGCCCTCGCGGAGTCACCTAGTGCAG | 8650 fluorescence intensity (a.u.)
CACGTTGTGAGCGCCTGTGTTTGTACTATATTTCTCAAAACGGAGTCACCTAGTGCAG | 8260 fluorescence intensity (a.u.)
AGAATTACACGGTACAACACAGACACTCACAACGCATGCACGGAGTCACCTAGTGCAG | 8510 fluorescence intensity (a.u.)
TATATATATATATATATATATATATCGAAGCAAATTCCCACGGAGTCACCTAGTGCAG | 9930 fluorescence intensity (a.u.)
TTTCCGTTAGTTTTTATTAGCACGTTTTTCAAACTACAAACGGAGTCACCTAGTGCAG | 8840 fluorescence intensity (a.u.)
TTGCTGAATCCAACATCGACCTCGCGTTTCTGTCTTTTTCCGGAGTCACCTAGTGCAG | 9960 fluorescence intensity (a.u.)
TGTTATGTGATCATGGTTTTATTGAGTGAATTTCACTTTACGGAGTCACCTAGTGCAG | 8250 fluorescence intensity (a.u.)
CCGATTTCACCTGGTTGCTTGCTTCTGCTGCCATGCCATCCGGAGTCACCTAGTGCAG | 10100 fluorescence intensity (a.u.)
GTGGAAGCACCAAAACTTATTTTTCTTCAAACGGTACATACGGAGTCACCTAGTGCAG | 8090 fluorescence intensity (a.u.)
AATGTCTTACCTCTTCTCTCTTTCGATGCCAAGAATGCAGCGGAGTCACCTAGTGCAG | 9830 fluorescence intensity (a.u.)
TTCAACTCTGGTCTGCAGTATCATCACTGTTAATTCCTTCCGGAGTCACCTAGTGCAG | 10200 fluorescence intensity (a.u.)
TCTTTAAAACCCATCACCATGTCCTAATAACACTTCCATGCGGAGTCACCTAGTGCAG | 8120 fluorescence intensity (a.u.)
TAGAGGGAGGGGACTGAGCAGGTGGTCGAATCAGGGGAGCCGGAGTCACCTAGTGCAG | 8180 fluorescence intensity (a.u.)
CTCTCTTTCATCCAATTCCTGTGTTTTCCCCGCGGTTTAACGGAGTCACCTAGTGCAG | 11200 fluorescence intensity (a.u.)
GCTATCTCTGTAGACTGTAGTTATTCCCATTCACATTTTCCGGAGTCACCTAGTGCAG | 8140 fluorescence intensity (a.u.)

In another format: entries from further up.
GTGGAAGCACCAAAACTTATTTTTCTTCAAACGGTACATACGGAGTCACCTAGTGCAG
  binding signal: 8090 fluorescence intensity (a.u.)
AATGTCTTACCTCTTCTCTCTTTCGATGCCAAGAATGCAGCGGAGTCACCTAGTGCAG
  binding signal: 9830 fluorescence intensity (a.u.)

(cont.)

Sequence | binding signal
TATTACGACACTTTCAGTCAGTTGTCTGAATTTTTGTTCCCGGAGTCACCTAGTGCAG | 9500 fluorescence intensity (a.u.)
TCCCAGCCACACACACGCGCACCCACACACGCATTCACATCGGAGTCACCTAGTGCAG | 9920 fluorescence intensity (a.u.)
ACACTGCCTAACTGTTCACCTAACTGGGTTCAACTGTACTCGGAGTCACCTAGTGCAG | 10000 fluorescence intensity (a.u.)
ATTGAGATAGAGGGAGTGGTTGGGATGGTGAAGTTGCTATCGGAGTCACCTAGTGCAG | 9450 fluorescence intensity (a.u.)
CAGTTTCATCTTGCTTCGGAGCTGCACGCATCAGCCATCCCGGAGTCACCTAGTGCAG | 8390 fluorescence intensity (a.u.)
CCAGTAGTGATCAACATGTACACCTCATACCATGTCCTTTCGGAGTCACCTAGTGCAG | 8200 fluorescence intensity (a.u.)
TTCACCGACCACGCCCACCGCGACCCCTGCGAATCTACCGCGGAGTCACCTAGTGCAG | 12400 fluorescence intensity (a.u.)
TTTTGTGCATGTGGCTTGTTCTTTTTGGTTGGATATTTGCCGGAGTCACCTAGTGCAG | 8350 fluorescence intensity (a.u.)
TTGTCCATTCTTCTTTGCCTCCTATCCACAACCCTCATTTCGGAGTCACCTAGTGCAG | 10000 fluorescence intensity (a.u.)
TTCATTTTCAATTCCCGTCCTCATTCTTCTTATGATATTTCGGAGTCACCTAGTGCAG | 8930 fluorescence intensity (a.u.)
CCCTAGAGCTGCTGACTGACAAAACTCTCTGCATCACCAACGGAGTCACCTAGTGCAG | 9540 fluorescence intensity (a.u.)
GCCGTGATCATCATACACAGCATCTCCATCTCTGCAGGGACGGAGTCACCTAGTGCAG | 8820 fluorescence intensity (a.u.)
AATGCTGCAATTTCTCGTTGACTAGACTTCACATGCAGCTCGGAGTCACCTAGTGCAG | 9720 fluorescence intensity (a.u.)
CCTAGATTGCGCCGCACCACGCCACCACGTACGCACGCGTCGGAGTCACCTAGTGCAG | 8380 fluorescence intensity (a.u.)
ACTAGACGCATCACCTCGTTGCCCCGGTCCTCAAGTACCTCGGAGTCACCTAGTGCAG | 9180 fluorescence intensity (a.u.)
TTGGTGGGTGCGTAAGTATGGGATTACGAGTATAGTAGTGCGGAGTCACCTAGTGCAG | 8180 fluorescence intensity (a.u.)
GTGATTTGATCTCGCTGCTGATATTGCTCCCTCATCCCAACGGAGTCACCTAGTGCAG | 8760 fluorescence intensity (a.u.)
CATCCTCATCATGAACTACAGCTTTATTACATAGTAACCGCGGAGTCACCTAGTGCAG | 8370 fluorescence intensity (a.u.)
ATTAGTGCCCGAACACCCCATGCGACGCCCTATATAATACCGGAGTCACCTAGTGCAG | 8640 fluorescence intensity (a.u.)
TATTGTAAATCGTTTGACTTTTTTCTTGATCAAAATTCTTCGGAGTCACCTAGTGCAG | 8070 fluorescence intensity (a.u.)
ATTAATACCTGACCCTACCTATCATATACATATTGCGTCTCGGAGTCACCTAGTGCAG | 10800 fluorescence intensity (a.u.)
